Source: PubChem BioAssay AID2003 (Broad Institute, 2009)
The other results are listed elsewhere or left out. Entries with a potency or affinity are not part of this list. Entries without a call are filed as inconclusive in the source.

Experiment: PubChem AID 2003
Conditions: H4 cells, SNCA 5'UTR luciferase reporter, luminescence; at 12 µM (top of the series) unless noted

Point of comparison: `CC#CC(=O)N1CCC(C(=O)Nc2ccc(Oc3ccccc3)nc2)CC1`, activation 77.2%. Against it:
- C/C(=N\Nc1ccc(C(=O)O)cc1)c1nc2ccccc2n1C — higher, 85.5%
- COc1cc2c(cc1NC(=O)c1ccccc1F)CCCC2 — lower, 72.3%
- O=C(Nc1cnc2sccn2c1=O)c1ccccc1Cl — lower, 45.5%
- O=C(NCCc1c[nH]c2ccccc12)c1cnc2sccn2c1=O — lower, 49.7%
- S=C(N/N=C/c1ccc(Br)cc1)N1CCCCC1 — lower, 62.8%
- COc1ccc2c(c1)oc(=O)c1c3ccccc3[nH]c21 — higher, 131%
- O=C(/C=C/c1c(F)cccc1Cl)Nc1ncccn1 — higher, 106%
- Cc1ccc(C(=O)Nc2nc3ccccc3c(=O)s2)cc1 — lower, 41.7%
- CC(C)(C)c1cc(NCCCn2ccnc2)n2ncc(-c3ccccc3)c2n1 — lower, 23.3%
- Cc1ccnc(NC(=O)c2ccc(NC(=O)c3ccco3)cc2)c1 — lower, 75.1%
- Cc1cc(NC(=O)OC2CCCCC2)ccc1[N+](=O)[O-] — lower, 43.8%
- c1csc(-c2cn3ccc4ccccc4c3n2)c1 — lower, 55.1%
- CCc1ccc2oc(-c3cc(N=Cc4cccc(OC)c4O)ccc3O)nc2c1 — lower, 3.1%
- Cc1nc2c(C(=O)N3CCCCC3)cnn2c(C)c1Cc1ccccc1F — lower, 56.8%
- COc1ccc(/C=C2\CCn3c2nc2ccccc2c3=O)cc1OC — lower, 73.6%
- c1ccc2nc(-c3ccc(-n4ccnc4)cc3)ccc2c1 — lower, -19.3%
- CCOc1ccc2c(c1)sc(=NC(=O)C1CC1)n2C — lower, 60%
- O=C(CSc1nnc(-c2cccnc2)o1)Nc1ccccn1 — lower, 10.4%
- CSc1ccc(/C=N/n2c(C)cc(C)cc2=O)cc1 — lower, 31.4%
- CC1CCC(=C(C#N)c2nc(-c3cc4ccccc4oc3=O)cs2)CC1 (configuration not stated) — higher, 81.6%
- Cc1ccc2oc(-c3cccc(NC(=O)Cn4cnc5c(=O)n(C)c(=O)n(C)c54)c3)nc2c1 — lower, 37.1%
- CCC(=C/c1sc2ccc3ccccc3c2[n+]1C)/C=C1\Sc2ccc3ccccc3c2N1C — lower, -39.3%
- O=C(COc1ccccc1F)N/N=C1\CCCc2ccccc21 — higher, 84.1%
- c1ccc(OCCSc2nnnn2C2CCCCC2)cc1 — lower, -13.2%
- O=c1c2cc(-c3ccccc3)sc2ncn1/N=C/c1ccco1 — lower, 41.7%
- CSc1nccc(N/N=C/c2ccccc2)n1 — higher, 93.6%
- CC1(C)Cc2c(sc3nc(-c4cc5ccccc5o4)n(N)c(=O)c23)CO1 — higher, 131%
- COC(=O)c1c(-c2cccnc2)csc1NC(=O)c1cc(C)on1 — lower, 51.3%
- Nc1nn2cc(-c3ccc(Br)cc3)nc2c2ccccc12 — higher, 139%
- N#Cc1c(NC(=O)c2ccccc2)sc2c1CCC2 — lower, 15.5%
- Cc1ccc2c(c1)sc1nc(=O)n(-c3cccc(Cl)c3)c(=O)n12 — lower, 62%
- COc1cc(/C=C2\C(=O)N(CCC#N)N=C2C)ccc1OCC(=O)Nc1ccccc1 — lower, 1.7%
- O=C(Nc1ncccc1O)c1ccc(Oc2ccccc2)cc1 — lower, 41.1%
- CCOC(=O)c1cn2nc(Oc3ccccc3)ccc2n1 — lower, 26%
- O=[N+]([O-])c1cccn2cc(-c3ccc(Br)cc3)nc12 — higher, 152%
- Cc1cc(NC(=O)/C=C/c2ccccc2Cl)no1 — higher, 169%
- Cc1nc2cc(Nc3nnc(-c4ccccc4)c4ccccc34)ccc2n1C — lower, 56.5%
- Cc1ccc(C(=O)CSc2nsc(C)c2C#N)cc1 — lower, 25.3%
- CCS(=O)(=O)c1nc(S(=O)(=O)c2ccc(C)cc2)c(N2CC(C)OC(C)C2)s1 (configuration not stated) — lower, 38.5%
- CCCc1cc2c(=O)c(-c3ccccn3)coc2cc1OC — lower, 64%
- c1ccc(COc2ccc(-c3csnn3)cc2)cc1 — lower, 34%
- CN(C)c1ccc(/C=C/c2nnnn2-c2ccccc2)cc1 — higher, 82.9%
- Nc1ncccc1OCc1ccc(Br)cc1 — lower, 65.5%
- COc1ccc(-c2nc(C#N)c(NCc3ccco3)o2)cc1 — lower, 71.8%
- CCC(=O)Nc1cccc(-c2nnc(SCC(=O)c3ccccc3)n2C)c1 — lower, 67.4%
- c1ccc(-c2noc(CC3CCCCC3)n2)cc1 — lower, 67.4%
- CC(C)c1cc(C(=O)NCCc2ccccc2)no1 — lower, 32.3%
- CCCn1c(C)cc(C(=O)CSc2nc3ccccc3c(=O)n2Cc2ccco2)c1C — lower, 56.8%
- CCSc1nn2c(=O)c3ccccc3nc2s1 — lower, 39.6%
- CCOC(=O)c1cn[nH]c1NC(=S)Nc1ccccc1 — lower, 45.1%
- Cc1c(C(=O)Nc2ccccc2[N+](=O)[O-])csc1-c1ccccc1 — lower, 19.7%
- O=C(CCCc1ccccc1)NC12CC3CC(CC(C3)C1)C2 — higher, 178%
- Cc1cccc(OC(=O)c2sc3ncn(C)c(=O)c3c2C)c1 — higher, 85.1%
- CCCCSc1nc2c(cnn2-c2ccccc2)c(=O)n1N — lower, 71.6%
- Clc1cnc(N/N=C/c2cccs2)c(Cl)c1 — higher, 115%
- CCS(=O)(=O)c1nnnn1-c1ccccc1S(C)(=O)=O — lower, 29.5%
- CCOc1ccc(N2C(=O)C(Cl)=C(Nc3ccccc3O)C2=O)cc1 — lower, 55.4%
- CN(C)c1ccc(NC(=O)c2sc(SCC(=O)Nc3nccs3)nc2N)cc1 — lower, 52.7%
- Cn1cc(/C=C2/SC(=O)N(c3ccccc3)C2=O)c2ccccc21 — higher, 149%
- CCCCCn1cnc2sc(-c3ccccc3)cc2c1=O — lower, 72.3%
- CCOC(=O)c1c(C)oc2c1c1c(c3ccccc32)OCN(CCCC(=O)O)C1 — higher, 91.5%
- CCCc1cc2c(=O)c(-c3ccc4c(c3)OCCO4)coc2cc1OC(=O)c1ccco1 — higher, 99.2%
- O=C(Nc1ccccc1)N1CC=C(c2ccccc2)CC1 — lower, 72.4%
- COc1cc(NC(=O)n2ncc3cc(Cl)ccc32)cc(OC)c1 — lower, 60.4%
- Clc1nc(-c2ccccn2)nc2scc(-c3ccccc3)c12 — lower, -18.5%
- O=C(Cc1ccccc1)NC(=S)Nc1ccc2oc(-c3ccccc3F)nc2c1 — higher, 104%
- S=C(c1ccc(-c2ccc(Br)cc2)o1)N1CCOCC1 — lower, 48.1%
- Cc1ccc(N=c2c([N+](=O)[O-])nn(-c3ccccc3)n2O)c(C)c1 — lower, 30.6%
- Nc1c(-c2cccc(Cl)c2)cnc2c(-c3ccccc3)cnn12 — higher, 190%
- O=C(Nc1cc(-c2ccccc2)[nH]n1)c1ccccc1F — lower, 61.2%
- c1ccc(-n2ncc3c(N4CCC5(CC4)OCCO5)ncnc32)cc1 — lower, 68.5%
- Cn1nnnc1Sc1ncnc2scc(-c3ccc(F)cc3)c12 — lower, 20.6%
- O=C(Nc1nc2ccc([N+](=O)[O-])cc2s1)C1CCCO1 (configuration not stated) — lower, 71.6%
- COc1ccc(Nc2ncnc3c2oc2ccccc23)cc1 — higher, 87%
- c1ccc(CSc2nnc(-c3c[nH]c4ccccc34)o2)cc1 — lower, 71.7%
- Cc1nc(-c2ccccc2)sc1-c1ccnn1C — lower, 43.9%
- O=c1sc(/C=N/Nc2ccccc2)c(Cl)n1Cc1ccccc1 — higher, 94.2%
- O=C(CSc1nnc(-c2ccccn2)o1)Nc1cccc(Cl)c1 — lower, 67.5%
- Cc1csc(NC(=O)CSc2nsc(SCC(=O)Nc3nc(C)cs3)c2C#N)n1 — lower, 72.2%
- Cn1c(-c2nnn(-c3ccc(F)cc3)n2)cc2ccccc21 — lower, 73.1%
- COc1ccc(/C=C2\SC(=O)N(CCNC(=O)C3CC4C=CC3C4)C2=O)cc1 (configuration not stated) — higher, 80.2%
- CCN1C(=S)SC(=O)C1=C1C=C(C)N(Cc2ccco2)C(C)=C1 — lower, 43.8%
- COc1ccc(Cl)c2c1[nH]c1nc(SCc3ccccn3)nnc12 — higher, 92.7%
- Fc1ccc(/C=N/NC2=Nc3cccc4cccc2c34)cc1 — lower, 68.5%
- COc1ccc(-c2cc(O)cc(O)c2)cc1 — lower, 30.9%
- COc1ccc(NC(=O)c2cc3ccccc3o/c2=N\NS(=O)(=O)c2ccc(C)cc2)cc1 — lower, 30.9%
- Cc1ccc(CNC(=O)/C=C/c2cccs2)cc1 — lower, 37.3%
- CC(=O)c1cccc(NC(=O)C(=O)Nc2cccc3ccccc23)c1 — lower, 45.8%
- COc1ccc(C(=O)Nc2ccccc2C(=O)N/N=C/c2cccc3ccccc23)cc1 — lower, 13.1%
- N=C1S/C(=C\c2cn[nH]c2-c2ccc(F)cc2)C(=O)N1c1ccccc1F — lower, 42.6%
- Nc1cc(-c2nc3ncccc3o2)ccc1Cl — higher, 88.5%
- O=C(Nc1nccs1)c1c(O)c2c([nH]c1=O)CCCC2 — higher, 78.6%
- COc1cc(OC)cc(C(=O)NCC(=O)OCc2nc3ccccc3s2)c1 — lower, 58.3%
- COC(=O)C1C(=O)c2c([nH]c(C(=O)OC3CCCCC3)c2C)CC1C (configuration not stated) — lower, 74.7%
- Clc1nnc(N/N=C/c2ccccc2)c2ccccc12 — higher, 78.5%
- Cn1c(NC(=O)CCc2ccccc2)cc(=O)n(C)c1=O — lower, 54.7%
- CC(C)(C)c1csc(NC2=NS(=O)(=O)c3ccccc32)n1 — lower, 52.4%
- O=C1C(C=Nc2ccc(F)cc2)=C(O)c2ccccc21 — higher, 102%
- Cc1cc(O)c(C2=Nc3ccccc3SC(c3ccc(Cl)cc3)C2)c(=O)o1 (configuration not stated) — lower, 31.1%
- O=[N+]([O-])C(/C=C(\Cl)[N+](=O)[O-])=C(N1CCCCC1)N1CCCCC1 — lower, 24.5%
- Cn1c(-c2ccc(F)cc2)cnc1SCC(=O)Nc1ccccc1N1CCOCC1 — lower, 59.4%
- C=CCn1c(C)nc2c(sc3nc4c(cc32)COC(C)(C)C4)c1=O — lower, 18.8%
- Cn1nnc2cc(NC(=O)Nc3cccc(Cl)c3)ccc21 — higher, 91.5%
- COc1ccc(C2CC(c3ccc4ccccc4c3)=NN2C(=O)COC(=O)C2CCC(=O)N2)cc1 (configuration not stated) — lower, 55.2%
- O=[N+]([O-])c1cccc(N/N=C/c2ccc(N3CCOCC3)cc2)c1 — higher, 186%
- c1ccc(-c2nnc(SCCC3OCCCO3)o2)cc1 — lower, 40.1%
- CCOC(=O)c1c(C)[nH]c(N=Nc2ccc(C)cc2)c1C — higher, 120%
- CSc1ncc(-c2ccc(Cl)cc2)[nH]1 — lower, 47.6%
- O=c1c2c3c(sc2nc2n1N=C(c1cccs1)CS2)CCCC3 — lower, 58.7%
- Cc1cccc(-c2nc(C#N)c(NCC3CCCO3)o2)c1 (configuration not stated) — lower, 47.3%
- O=C(Nc1ccccc1)c1cc2ccccc2c(=O)s1 — higher, 232%
- Cn1c(C(=O)NCC2CCCO2)cc2oc3ccccc3c21 (configuration not stated) — lower, 26%
- CCOC(=O)c1ccc(-c2ccc(/C=N/NC(=O)c3cncc(Br)c3)o2)cc1 — lower, 59.1%

Point of comparison: `Cc1cc(/C=C2/C(=O)N(C)C(=S)N2C)c(C)n1C1CC1`, activation 168% [at 6 µM]. Against it:
- COC(=O)CCN1CCc2cc(N=Nc3ccc([N+](=O)[O-])cc3)ccc21 — lower, 142% [at 6 µM]
- Brc1ccc(-c2csc(NC3=NCCCCC3)n2)cc1 — lower, 78.6% [at 6 µM]
